Data taken from PubChem BioAssay AID2551 (National Center for Advancing Translational Sciences (NCATS), 2010).
In all, about 310,000 compounds went through this assay and about 17,000 (5.5%) were called active. The inconclusive results got no clear call from the source; some entries with a clear call stand among them for comparison. Calls follow the shape of the dose curve; as a rule, active = well fitted inhibition curve with a large enough effect; inconclusive = small, poorly fitted or top-dose-only effect, or effect the other way; inactive = no such curve, though single readings can be large or run the other way. Potencies beside an inconclusive call are fits to weak or partial responses and may not hold up.
Also: nearly all actives have a fitted effect of over 60% in size.
Potency is read from the fitted curve at half-maximal effect.

By UniProt entry, the sequences of proteins in these tests, tags left out. Where a name states a change or a piece, a line headed by the entry shows the natural chain unless it says otherwise.
UniProt P51450: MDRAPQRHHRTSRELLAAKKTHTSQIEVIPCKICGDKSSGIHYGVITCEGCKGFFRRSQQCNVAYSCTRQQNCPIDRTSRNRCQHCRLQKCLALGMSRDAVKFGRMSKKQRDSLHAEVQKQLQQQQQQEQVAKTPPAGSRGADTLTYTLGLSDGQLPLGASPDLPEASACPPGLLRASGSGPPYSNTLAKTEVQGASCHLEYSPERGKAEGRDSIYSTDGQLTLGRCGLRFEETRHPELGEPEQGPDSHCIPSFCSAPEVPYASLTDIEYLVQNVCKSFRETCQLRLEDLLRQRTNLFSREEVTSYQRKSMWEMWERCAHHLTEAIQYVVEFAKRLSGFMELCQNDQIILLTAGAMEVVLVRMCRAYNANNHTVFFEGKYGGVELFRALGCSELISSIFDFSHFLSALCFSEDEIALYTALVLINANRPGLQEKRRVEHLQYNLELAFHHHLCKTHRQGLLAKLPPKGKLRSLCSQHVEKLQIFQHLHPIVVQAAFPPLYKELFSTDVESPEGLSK

These compounds were tested against Nuclear receptor ROR-gamma (Mus musculus) (UniProt P51450) (assay: qHTS for inhibitors of ROR gamma transcriptional activity). Details: Drosophila S2 Gal4-RORgamma UAS-luciferase reporter, 20 h; series mostly up to 53.6 µM.
Summary of the method: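 In this cell-based reporter format, copper sulfate (700 uM final) drives Gal4–ROR gamma fusion expression from a metallothionein promoter in Drosophila Schneider cells; compounds preincubated 1 hr, reporter read after 20 hr at ambient temperature.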
With S=C(Nc1ccccc1)N1CCN(Cc2ccccc2)CC1 the Potency was inconclusive: 25.1 µM [inhibitor, single point]. Cc1ccccc1-c1nc(-c2ccccn2)no1 was tested, and the Potency was active: 7.08 µM. CC(C)N1CCc2c(sc(NC(=O)c3ccc4ccccc4c3)c2C(N)=O)C1 was tested, and the Potency was inconclusive: 2.51 µM [inhibitor, partial curve]. C/C(=N\NC=O)c1ccncc1 was tested, and the Potency was inconclusive: 3.98 µM [inhibitor, single point]. For Cc1c(/C=N/Nc2nc3ccccc3[nH]2)c2ccccc2n1C, the Potency was active: 5.01 µM. In the case of CN1CCN(c2ccccc2NC(=O)c2ccc([N+](=O)[O-])o2)CC1, the Potency is reported as inconclusive: 11.2 µM [inhibitor, partial curve, poor fit]. COc1ccc(/C=C(/C#N)C(=O)Nc2cc(C)ccc2C)cc1C(=O)O was tested, and the Potency was inconclusive: 17.8 µM [inhibitor, single point]. With COCC(=O)N1CCC(Oc2ccc(C(=O)NCCCC3CCCC3)cc2)CC1 the Potency was “inactive”. In the case of CC(=O)Nc1ccc(Cc2ccc3[nH]c(=O)cc(C)c3c2)cc1, the Potency is reported as “inactive”. In the case of C/C(=N\NC(=O)CSc1ncccn1)c1ccc2c(c1)OCCO2, the Potency is reported as inconclusive: 4.47 µM [activator, partial curve]. In the case of CCC1=C2CC[C@H]3C(=O)N(C)C(=O)[C@H]3[C@H]2[C@@]2(Cc3ccccc3)C(=NCC3CC3)OC(=O)N2C1=O, the Potency is reported as “inactive”. In the case of CCOC(=O)N1CCC(N(CCN(C)C)C(=S)Nc2ccc(Oc3ccccc3)cc2)CC1, the Potency is reported as active: 11.2 µM. In the case of Cc1cccc2[nH]c3c(N4CC=C(c5ccc(F)cc5)CC4)ncnc3c12, the Potency is reported as “inactive”. In the case of COC(=O)c1ccc(-n2c(C)cc(C(=O)COC(=O)CC3Sc4ccccc4NC3=O)c2C)cc1 (stereo not drawn), the Potency is reported as inconclusive: 12.6 µM [activator, single point]. In the case of Cc1cc(N2CCOCC2)ccc1/C=C1\SC(=O)N(C(C)C)C1=O, the Potency is reported as inconclusive: 22.4 µM [activator, single point]. Cc1onc(-c2ccccc2)c1C(=O)NNC(=S)NC(=O)c1ccc(F)cc1 was tested, and the Potency was active: 3.98 µM. O=C(Nc1nnc(SCc2ccccc2)s1)c1cccc([N+](=O)[O-])c1 was tested, and the Potency was inconclusive: 1 µM [inhibitor, single point]. For Fc1ccccc1-c1nc(-c2ccncc2)no1, the Potency was inconclusive: 35.5 µM [inhibitor, single point]. For CCn1c(SCC(=O)Nc2cc(C(C)(C)C)nn2-c2ccccc2)nnc1-c1cccs1, the Potency was “inactive”. With CC(C)NC(=S)NC(c1ccccc1)(c1ccccc1)c1ccccc1 the Potency was inconclusive: 0.447 µM [inhibitor, full curve]. For Cc1cccc(C(=O)Nc2ccc(N3CCN(C(=O)c4ccco4)CC3)cc2)c1, the Potency was inconclusive: 14.1 µM [activator, single point]. With COc1ccccc1CN1CCC2(CC1)CCN(C(=O)c1cc(C(F)(F)F)cc(C(F)(F)F)c1)CC2 the Potency was “inactive”. In the case of CCN(CC)c1ccc(/C=C(\C#N)c2nc(-c3cccs3)c(NC(C)=O)s2)cc1, the Potency is reported as inconclusive: 5.62 µM [activator, partial curve]. O=C(Nc1cccc(Cl)c1)c1ccc(-n2cncn2)c([N+](=O)[O-])c1 was tested, and the Potency was inconclusive: 7.08 µM [activator, partial curve]. O=C(CSCc1c(Cl)cccc1Cl)Nc1nccs1 was tested, and the Potency was inconclusive: 15.8 µM [inhibitor, single point]. CC1CCCC(C)N1C(=O)CSc1nc2ccccc2s1 (stereo not drawn) was tested, and the Potency was inconclusive: 14.1 µM [activator, partial curve, poor fit]. In the case of COc1ccccc1NC(=O)/C=C/C(N)=O, the Potency is reported as active: 4.47 µM. With CCCNC(=O)c1cccc(Br)c1 the Potency was “inactive”. With Cc1ccc2c(c1)c1c(n2CC(O)Cn2c(C)nc3ccccc32)C(=O)CCC1 (stereo not drawn) the Potency was “inactive”. For Cc1ccc(/S(C)=N/S(=O)(=O)c2ccc(C)cc2)cc1 (stereo not drawn), the Potency was inconclusive: 6.31 µM [activator, single point]. In the case of OCC1(CCCc2ccccc2)CCN(Cc2ccc(F)cc2)CC1, the Potency is reported as “inactive”. CC1(C)C(=O)C(c2ccccc2)=C2CN3C(=O)N(CCc4ccccc4)C(=O)C3(Cc3ccc(C(F)(F)F)cc3)C=C21 (stereo not drawn) was tested, and the Potency was “inactive”. Cc1ccc2nc(Nc3nc(-c4ccccc4)cc(=O)[nH]3)nc(C)c2c1 was tested, and the Potency was inconclusive: 22.4 µM [inhibitor, single point]. In the case of Clc1ccccc1-c1nn2c(COc3ccccc3)nnc2s1, the Potency is reported as inconclusive: 14.1 µM [inhibitor, single point]. For Nc1c(Cl)ncnc1N/N=C/c1ccccn1, the Potency was active: 0.398 µM. For O=C(Nc1ccc(OC(F)F)c(Cl)c1)c1ccccn1, the Potency was inconclusive: 5.01 µM [activator, single point]. With COc1cccc(/C=N/NC(=O)CNC(=O)COc2ccccc2)c1O the Potency was active: 0.282 µM. In the case of O=C(O)CSc1nc(-c2ccccc2)nc2c1oc1ccccc12, the Potency is reported as “inactive”. With CC(C)CCNC(=O)C(c1ccc(O)cc1)N(C(=O)C1COc2ccccc2O1)c1cccc(O)c1 (stereo not drawn) the Potency was “inactive”. With COc1ccc(NC(=O)/C=C/c2cc(Br)ccc2OC)cc1 the Potency was inconclusive: 11.2 µM [activator, partial curve]. For CN(CCCNC(=O)c1cccc(N2CCCC2=O)c1)c1ccccc1, the Potency was inconclusive: 15.8 µM [activator, single point]. With CC(=O)Nc1ccc(C(=O)CSc2nnnn2C2CCCC2)cc1 the Potency was “inactive”. For COC(=O)c1ccc(S(=O)(=O)N2CCc3ccccc32)cc1, the Potency was inconclusive: 35.5 µM [activator, single point]. CC(C)(C)n1nc2c(c1NC(=O)c1ccc([N+](=O)[O-])cc1)CS(=O)(=O)C2 was tested, and the Potency was “inactive”. O=C(Nc1nc2ccccc2n1CCN1CCOCC1)c1ccccc1 was tested, and the Potency was active: 2.82 µM. For COc1ccc(C(NC(=O)c2ccc(=O)[nH]c2)C(=O)Nc2ccc(C(C)C)cc2)cc1 (stereo not drawn), the Potency was inconclusive: 8.91 µM [inhibitor, partial curve]. For Cc1ccc(NC(=S)c2ccc3ccccc3n2)c(C)c1, the Potency was active: 2 µM. With O=C(NNc1ncccc1-n1cccc1)c1ccc(Cl)cc1 the Potency was inconclusive: 11.2 µM [inhibitor, single point].
